# Experimental data taken from patent US20160151505A1 (KONINKLIJKE PHILIPS N.V., priority 2011, published 2016).
# For at least one compound, name, drawing or mass did not settle the structure.
# Experiment: Second-order rate constant determination of trans-cyclooctene derivatives with tetrazine
# Settings: UV-visible spectroscopy in acetonitrile at 20° C.
# Description: The kinetics of the inverse-electron demand Diels-Alder reaction of a trans-cyclooctene derivative with 3-(5-acetamido-2-pyridyl)-6-(2-pyridyl)-1,2,4,5-tetrazine, performed in acetonitrile at 20° C., was determined using UV-visible spectroscopy. A cuvette was filled with acetonitrile (3 mL) and equilibrated at 20° C. 3-(5-Acetamido-2-pyridyl)-6-(2-pyridyl)-1,2,4,5-tetrazine (2.50×10^−7 mol) was added, followed by the trans-cyclooctene derivative (2.50×10^−7 mol). The decay of the absorption at λ=540 nm was monitored, and from this curve the second-order rate constant, k2, was determined assuming second order rate kinetics.
compound,measurement,value
"NC1/C=C/CCCCC1NC(=O)Oc1ccccc1 (stereo not drawn) [compound 56, trans phenyl(E)-2-aminocyclooct-3-en-1-yl carbamate]",rate contant* k2,44.4 M⁻¹ s⁻¹
